Literature values in patent US6589563B2 (Nanodelivery, Inc., priority 1999, dated 2003).

Settings: cited from earlier work

CC(=O)O[C@H]1C(=O)[C@@]2(C)[C@H]([C@H](OC(=O)c3ccccc3)[C@]3(O)C[C@H](OC(=O)[C@H](O)[C@@H](NC(=O)c4ccccc4)c4ccccc4)C(C)=C1C3(C)C)[C@]1(OC(C)=O)CO[C@@H]1C[C@@H]2O [Taxol, Paclitaxel]
water solubility: water-insoluble
